{"source": "patent US4639333", "about": "(dated 1987)", "experiment": "general procedure: peptide synthesis; trypsin (enzymatic transpeptidation with amino acid tert-butyl esters)", "settings": "late stage modification step"}
{"substance": "Example 2 bovine insulin B30-Ala-O(tBu)", "values": [{"measurement": "crude HPLC purity", "value": 67, "unit": "%"}]}
